Laboratory results from patent publication US20090041783A1.
Results are given in words; binding and its absence hold for the method and conditions named. Some entries that bind do so weakly or less than the wild type.

Chains of the proteins cited; added tags and fusions are not shown. Lines headed by an entry give the natural chain unless they say otherwise; changes in a name come on top.
UniProt P01591: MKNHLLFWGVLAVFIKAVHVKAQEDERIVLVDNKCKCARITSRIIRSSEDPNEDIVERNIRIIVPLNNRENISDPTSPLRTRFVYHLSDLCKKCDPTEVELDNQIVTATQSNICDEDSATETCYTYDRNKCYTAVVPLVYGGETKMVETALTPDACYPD

Molecular target: cynomolgus monkey platelet GPVI on monkey platelets (cynomolgus monkey)
Test: flow cytometry on cynomolgus monkey platelets, 3-4 µg/mL antibody, anti-human IgM-FITC

- binding: binds
Substance: mouse/human chimeric IgM-type F1232-37-2, cF1232-37-2 (IgM) (from UniProt P01591 23-159) (antibody)
